AC50 data for 67 compounds are collected here from PubChem BioAssay AID901 (National Center for Advancing Translational Sciences (NCATS), 2007).

This is one part of the list. The main result of the screen is listed elsewhere. These columns were measured beside it and carry no call. Most of these compounds were active or inconclusive in the main read-out, so they are no random draw. Potencies come from curve fits of mixed quality, noted in brackets.

A word on the AC50: it is the concentration at which the activity in the assay is half-maximal.

The nature of the experiment: qHTS Assay for Identifying the Cell-Membrane Permeable IMPase Inhibitors. The following applies: CHO-M1 cells, IP1 accumulation, HTRF TR-FRET ratio; measured here: donor channel 620 nm AC50.
In the case of `CC(C)OC(=O)c1c(NC(=O)COc2cccc(Br)c2)sc2c1CCCC2`, the AC50 is 3.55 µM [rising, partial curve]. As for `Cc1ccc(NC(=O)c2c(-c3c(F)cccc3Cl)noc2C)cc1F`, the figure is 20 µM [rising, single point]. The result for `CCCn1c(NC(=O)c2ccc(Br)cc2)nc2ccccc21` reads 31.6 µM [rising, single point]; that for `COc1c(C(=O)Nc2c(C)n(C)n(-c3ccccc3)c2=O)ccc2ccccc12`, 15.8 µM [rising, single point]. For `O=C(CN1C(=O)CCC1=O)NCC12CC3CC(CC(C3)C1)C2`, the AC50 was 0.447 µM [rising, full curve, poor fit]. The result for `CSCC[C@H](NC(=O)Nc1ccc(C)cc1C)C(=O)O` reads 0.0631 µM [rising, partial curve, poor fit]; that for `COc1cc2ccccc2cc1C(=O)Nc1ccc2oc(-c3ccc(Cl)cc3)nc2c1`, 0.00562 µM [falling, full curve, poor fit]; that for `CC(C)C(=O)Nc1cccc(NC(=O)CCN2C(=O)c3ccccc3S2(=O)=O)c1`, 2 µM [falling, partial curve, poor fit]. Consider `CC(C)(C)C1CCc2onc(C(=O)N3CCOCC3)c2C1` (configuration not stated), for which the AC50 is 3.16 µM [rising, single point]. As for `CCOC(=O)CSc1nc(-c2ccccc2)nc2ccc(F)cc12`, the figure is 0.794 µM [rising, full curve, poor fit].

Turning to `CC(=O)Nc1ccc(NC(=O)C2CCCN(c3ncccn3)C2)cc1` (configuration not stated), the half-maximal activity concentration (AC50) was 3.16 µM [falling, single point].

As to `CNC(=O)Cc1csc2ccc(Cl)cc12`, the AC50 was 3.98 µM [falling, single point]. As for `CN(C)c1ccc(/C=C/c2cc[n+](C)cc2)cc1`, the figure is 12.6 µM [falling, partial curve]. The result for `O=C1c2ccccc2-c2onc3ccc(NCc4ccco4)c1c23` reads 20 µM [falling, partial curve]; that for `CC(C)=CCC(C)(C)CNC(=O)NC1CCCCC1`, 3.16 µM [rising, single point]; that for `CCCC/C(C)=N/NC(=O)c1cn(-c2ccccc2)nc1-c1ccccc1`, 11.2 µM [falling, partial curve, poor fit]. The result for `CN1CCN(/N=C/c2nc(-c3cccc([N+](=O)[O-])c3)n3ccccc23)CC1` reads 10 µM [falling, partial curve].

As to `O=C(COc1ccccc1)NCC1CCCO1` (configuration not stated), the concentration at half-maximal activity (AC50) is 0.158 µM [falling, full curve]. As for `COCCNC(=S)N1CCOCC1`, the figure is 35.5 µM [rising, single point]; as for `N=C1C=CC=C2C1=NC1(CCCCC1)N2O`, 10 µM [falling, single point]. For the compound `Cc1ccc(-c2nc3cccnc3o2)cc1NC(=O)COc1ccc(Cl)cc1C`, the concentration at half-maximal activity (AC50) is 25.1 µM [falling, single point]. In the case of `COc1ccc(CNc2nc3ccccc3n2CCN2CCOCC2)cc1`, the AC50 is 1 µM [rising, full curve, poor fit]. Turning to `CCC(C)[C@@H](NC(=O)OC(C)(C)C)c1nnc(S(=O)(=O)Cc2cccc(C)c2)o1` (some centres not stated), the concentration at half-maximal activity (AC50) is 5.01 µM [falling, single point]. For `O=C(CN1N=C(C(F)(F)F)CC1(O)c1ccc([N+](=O)[O-])cc1)c1ccccc1` (configuration not stated), the AC50 was 0.794 µM [falling, full curve, poor fit]. Take `CCCc1nnc(NC(=O)CCC(=O)N2CCCCCC2)s1`: the AC50 was 0.316 µM [falling, partial curve, poor fit]. As for `CN(C)CC[C@H](c1ccc(Cl)cc1)c1ccccn1`, the figure is 0.01 µM [rising, full curve, poor fit]; as for `CCOC(=O)N1CCC(N(CCOC)C(=O)Nc2ccc(CC)cc2)CC1`, 5.01 µM [rising, single point]; as for `COc1ccc2[nH]c(=O)c(CN(C(C)=O)C3CCCCC3)cc2c1`, 0.631 µM [rising, partial curve, poor fit]. The result for `Cc1ccccc1OCCN1C(=O)NC2(CCCc3ccccc32)C1=O` (configuration not stated) reads 0.0158 µM [falling, full curve, poor fit]; that for `COc1ccccc1N1CCN(C(=O)c2cc(-c3cccc(Cl)c3)on2)CC1`, 0.631 µM [falling, full curve, poor fit]. The result for `CC(C)(C)n1nnnc1C(c1cccnc1)N(Cc1ccccc1)Cc1cccs1` (configuration not stated) reads 15.8 µM [rising, partial curve, poor fit]; that for `CCN(CC)S(=O)(=O)c1cccc(-c2nnc(SCc3nnc(-c4cccs4)o3)n2N)c1`, 3.98 µM [falling, single point]; that for `CCCCc1ccc(C2C(C#N)=C(N)SC(N)=C2C#N)s1`, 12.6 µM [falling, single point]. Take `COCC(C)n1c(SCc2nc(N)nc(Nc3ccccc3C)n2)nc2ccccc2c1=O` (configuration not stated): the AC50 is 3.16 µM [falling, partial curve].

Turning to `Cc1ccc2c(c1)c(=O)c1ccccc1n2CCCC(=O)Nc1ccc(Cl)cc1C`, the concentration at half-maximal activity (AC50) was 35.5 µM [falling, single point]. The result for `CC(=O)c1ccc(-n2c(SCC(=O)c3c[nH]c4ccccc34)nc3ccccc3c2=O)cc1` reads 5.62 µM [rising, single point]; that for `Cc1c(-c2ccccc2)oc2nc3c(c(=O)n(C)c(=O)n3C)n12`, 0.398 µM [falling, full curve]. As for `COc1ccc(CCNC(=O)CSc2nc(O)c(C(C)C)c(=O)[nH]2)cc1OC`, the figure is 31.6 µM [falling, single point]; as for `Cc1ccc(-c2cc(C(=O)NCCCn3ccnc3)c3cc(Br)ccc3n2)o1`, 12.6 µM [rising, single point]; as for `CCOc1cc(NC(=O)c2ccco2)c(OCC)cc1NC(=O)c1cc(OC)c(OC)c(OC)c1`, 0.0316 µM [falling, full curve, poor fit].

Take `C=CCC(CC=C)(C(=O)O)c1ccccc1`: the AC50 was 1.12 µM [falling, full curve, poor fit].

`COc1ccc(Cn2ccnc2)cc1Br`: the concentration at half-maximal activity (AC50) was 10 µM [rising, partial curve]. `COCCn1c(C)cc(C2=NNC(=Nc3ccc(F)cc3)SC2)c1C`: the AC50 was 3.16 µM [rising, single point].

Regarding `O=C(C1=C(O)C(=O)N(CCCN2CCOCC2)C1c1ccccn1)c1cc2ccccc2o1` (configuration not stated), the AC50 is 10 µM [rising, partial curve]. As for `COCCN1C(=O)C(=O)/C(=C(/O)c2ccc3c(c2)OCCO3)C1c1ccc(C(=O)OC)cc1` (configuration not stated), the figure is 20 µM [rising, partial curve]. In the case of `Cc1cc2cc(CN(Cc3cccs3)C(c3nnnn3C(C)(C)C)C(C)C)c3nnnn3c2cc1C` (configuration not stated), the AC50 was 5.62 µM [rising, single point]. As for `CCN(CC)C(=O)c1ccc(Nc2nnc(C)c3ccccc23)cc1`, the figure is 3.16 µM [falling, single point]. The result for `COc1ccccc1NC(=O)c1ccc(S(=O)(=O)N2CCOCC2)cc1` reads 6.31 µM [falling, single point]. As for `CNc1nc(-c2ccccc2)nc(-c2ccccc2)c1C#N`, the concentration at half-maximal activity (AC50) is 25.1 µM [rising, single point]. Take `CCOC(=O)c1c(NC(=O)c2ccc(Br)o2)sc(C)c1CC`: the AC50 is 3.98 µM [falling, partial curve].

Turning to `Cc1cc(C(=O)Nc2ccc(S(=O)(=O)Nc3nccs3)cc2)c(C)o1`, the AC50 was 35.5 µM [falling, single point]. On to `COc1cc(O)c(C(C)=O)cc1OC`, for which the AC50 is 6.31 µM [falling, single point].

In the case of `CCC(C)NC(=O)CCSc1nc(-c2ccc(OC)cc2)cc(C(F)(F)F)n1` (configuration not stated), the AC50 is 35.5 µM [rising, single point]. As for `O=C(C1=C(O)C(=O)N(c2ncccn2)C1c1ccc(Cl)cc1)c1ccco1` (configuration not stated), the figure is 12.6 µM [rising, partial curve]. Take `COCCN(CCOC)Cc1cc(=O)oc2cc3c(cc12)CCC3`: the AC50 is 0.0501 µM [rising, partial curve, poor fit].

Regarding `Cc1ccc(CN2C(=O)C3CCCN3c3ccc(C#N)cc32)cc1` (configuration not stated), the AC50 is 0.01 µM [rising, full curve, poor fit].

`COc1ccc(-c2cn3ccsc3n2)cc1`: the AC50 is 0.794 µM [falling, partial curve].

`Nc1[nH]nc2nc3ccccc3nc12`: the AC50 is 15.8 µM [falling, partial curve]. As for `Cc1ccccc1NC(=O)C1(NC(=O)c2cccc(N3C(=O)CSC3c3ccccc3)c2)CCCCC1` (configuration not stated), the figure is 5.01 µM [falling, partial curve]; as for `CCCC1CCC(C(=O)Nn2c(C)nc3ccccc3c2=O)CC1` (configuration not stated), 0.631 µM [falling, full curve]. As for `Cc1sc(-c2ccccn2)nc1OC(=O)c1ccc(Cl)c(Cl)c1`, the AC50 was 0.00316 µM [rising, full curve, poor fit]. The result for `CCOC(=O)C1CCN(C(=O)COc2ccc(S(=O)(=O)NC(C)C)cc2Cl)CC1` reads 3.98 µM [rising, single point]; that for `Cc1ccc(C(=O)Nc2nnc(-c3ccc(C(C)(C)C)cc3)s2)cc1`, 0.316 µM [rising, full curve, poor fit].

For the compound `O=c1oc2ccccc2c2c1SC(C(F)(F)F)C2` (configuration not stated), the AC50 is 5.01 µM [falling, single point]. As for `CCN1CCN(C(=O)CS(=O)(=O)Cc2nc(-c3ccc(C)cc3)oc2C)CC1`, the figure is 2.82 µM [falling, partial curve]; as for `O=C(NCc1cccs1)c1nc2c(nnn2Cc2ccc(F)cc2)c(=O)[nH]1`, 0.158 µM [falling, full curve]; as for `Cc1cc(NC(=O)c2ccc(S(=O)(=O)N3CCCC3)cc2)nc2c1c(=O)oc1ccccc12`, 31.6 µM [rising, single point].
